Construct, isoform or probe ends are uncertain for at least one entry. Tags and fusion partners may be left off the protein sequences shown.

This note sets out measurements from PMC3333781, “Systematic mapping of two component response regulators to gene targets in a model sulfate reducing bacterium”.

Data set [1] concerns the target T1, DVU2114 response regulator (Desulfovibrio vulgaris Hildenborough) (UniProt Q72A83).
T1 sequence (looked up, limits assumed): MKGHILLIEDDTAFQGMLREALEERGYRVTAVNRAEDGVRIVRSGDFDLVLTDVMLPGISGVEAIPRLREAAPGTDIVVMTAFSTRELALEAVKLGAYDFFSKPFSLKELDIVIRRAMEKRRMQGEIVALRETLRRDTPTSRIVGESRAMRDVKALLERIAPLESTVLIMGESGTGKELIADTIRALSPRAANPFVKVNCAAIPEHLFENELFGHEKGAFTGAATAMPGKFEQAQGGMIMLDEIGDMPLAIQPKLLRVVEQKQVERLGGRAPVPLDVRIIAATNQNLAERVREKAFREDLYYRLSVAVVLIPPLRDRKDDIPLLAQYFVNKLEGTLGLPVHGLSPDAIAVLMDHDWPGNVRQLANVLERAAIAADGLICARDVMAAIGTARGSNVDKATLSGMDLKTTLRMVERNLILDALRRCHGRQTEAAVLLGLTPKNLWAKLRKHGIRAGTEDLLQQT
The experiment in a line: EMSA. To be noted: 10 mM Tris-HCl pH 7.5, 1 mM DTT, 50 mM KCl, 5 mM MgCl2, 25% glycerol, 1 ug/ml poly dI-dC, 50-100 fmol biotinylated DNA, 25-30 C, 20 min; recombinant protein; protein details: C-terminal V5-6xHis; label: 5'-biotin top strand. (In general: Mobility shift assays separate free from complexed probe on a gel.)

Data set [2] concerns the target T2, DVU0804 response regulator (Desulfovibrio vulgaris Hildenborough) (UniProt Q72DX5).
T2 sequence (looked up, limits assumed): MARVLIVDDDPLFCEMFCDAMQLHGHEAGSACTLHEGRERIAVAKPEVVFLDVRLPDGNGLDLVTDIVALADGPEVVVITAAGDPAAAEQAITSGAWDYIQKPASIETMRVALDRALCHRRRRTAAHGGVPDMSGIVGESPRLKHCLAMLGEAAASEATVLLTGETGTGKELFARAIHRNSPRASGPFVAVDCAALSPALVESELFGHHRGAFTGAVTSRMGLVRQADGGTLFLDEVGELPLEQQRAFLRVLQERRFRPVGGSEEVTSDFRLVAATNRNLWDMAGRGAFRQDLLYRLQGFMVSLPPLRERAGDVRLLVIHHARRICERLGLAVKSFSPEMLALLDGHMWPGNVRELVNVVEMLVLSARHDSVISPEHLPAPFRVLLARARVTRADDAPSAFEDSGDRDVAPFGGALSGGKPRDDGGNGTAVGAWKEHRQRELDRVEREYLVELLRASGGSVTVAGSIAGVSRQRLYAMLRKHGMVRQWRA
The experiment in a line: EMSA. Particulars: 10 mM Tris-HCl pH 7.5, 1 mM DTT, 50 mM KCl, 5 mM MgCl2, 25% glycerol, 1 ug/ml poly dI-dC, 50-100 fmol biotinylated DNA, 25-30 C, 20 min; recombinant protein; protein details: C-terminal V5-6xHis; label: 5'-biotin top strand; letters put together from the description.

As for “ACCGGGCCACTCTACAAATCATAGATGCCCATCGC (double strand) [DVU2116 motif wt]”, in data set [1], the binding result is recorded as “binds”.
Turning to “TTATTCTGTAAACTTTTTATTTACAAAATGACATC (double strand) [DVU0805 upstream binding-site substrate (35 bp)]”, the binding result in data set [2] is recorded as “binds”.
